Reference: PubChem BioAssay AID624491 (Broad Institute, 2012)
Among all 1,800 compounds or so, about 1,400 (78%) were called active. About 2% were inconclusive and are not listed.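 Rule for the calls: active = fitted curve crossing a set activation limit at or below the highest valid dose tested; inconclusive = flat fit at 30 to 70% activation, or poor fit; inactive = the rest, including signal decreases.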 The set was probably picked from earlier hits. This is a selection; strong and weak results do not stand in their true shares. Entries with a potency or affinity are not part of this list.

Test: blockers of NLG process in reporter cells – D54 ERlucT cells, luminescence, cherry-picks, dose response (AID 624491);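 note: signal gain reflects blocked N-linked glycosylation of a luciferase reporter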
Conditions: D54 ERlucT glycosylation luciferase reporter, 24 h

Question: For COC(=O)C1=C(c2cc3ccccc3s2)C[C@@H]2CC[C@H]1N2C(=O)N1CCCCC1, which activation (NLG inhibition) (at 19.5 µM (top of the series)) is on record?
Answer: inactive: 19.7%

Question: With CN(C)c1ccc(/C=C/c2cc[n+](C)c3ccccc23)cc1 as the compound, how does the activation (NLG inhibition) (at 5 µM (top of the series)) read?
Answer: inactive: -37.9%

Question: And the activation (NLG inhibition) (at 19.5 µM (top of the series))?
Answer: inactive: 72.2%

Question: Which activation (NLG inhibition) (at 19.5 µM (top of the series)) does the source give for CC(=O)OC1CC[C@]2(C#N)[C@H]3CC[C@]4(C)[C@H](C5C=CC(=O)O5)CCC4(O)C3CCC2(O)C1 (stereo partly specified) here?
Answer: inactive: -11.3%

Question: Which activation (NLG inhibition) (at 19.5 µM (top of the series)) does the source give for CN(C)c1ccc(/C=C/C=C/c2sc3ccccc3[n+]2C)cc1 here?
Answer: inactive: -8.7%

Question: Which activation (NLG inhibition) (at 19.5 µM (top of the series)) does the source give for CN1CN(c2ccccc2)C2(CCN(CCCSc3ccccc3NC(=O)/C=C/c3ccccc3)CC2)C1=O here?
Answer: inactive: 130%

Question: For CC[n+]1c(/C=C/C=C/c2ccc(N(C)C)cc2)sc2ccccc21, which activation (NLG inhibition) (at 19.5 µM (top of the series)) is on record?
Answer: inactive: -10%

Question: For CCC1C(c2cc(OC)c(OC)c(OC)c2)c2cc3c(cc2OC1N1CCCC1)OCO3 (stereo unspecified), which activation (NLG inhibition) (at 19.5 µM (top of the series)) is on record?
Answer: inactive: 8.96%

Question: For CNC(=O)c1cccn(Cc2cccc(C(F)(F)F)c2)c1=O, which activation (NLG inhibition) (at 19.5 µM (top of the series)) is on record?
Answer: inactive: 125%

Question: For CC(C)N1C(=O)/C(=C/C=C/c2ccco2)C(=O)N(Cc2ccco2)C1=O, which activation (NLG inhibition) (at 19.5 µM (top of the series)) is on record?
Answer: inactive: 21.9%

Question: With CCC(C)OC(=O)c1c(N)n(Cc2cccs2)c2nc3ccccc3nc12 (stereo unspecified) as the compound, how does the activation (NLG inhibition) (at 19.5 µM (top of the series)) read?
Answer: inactive: 0.113%

Question: Which activation (NLG inhibition) (at 19.5 µM (top of the series)) does the source give for Cc1cccn2c(=O)c3cc(C(=O)N4CCC5(CC4)OCCO5)n(C)c3nc12 here?
Answer: inactive: 17.5%

Question: For Nc1c(C(=O)OCC2CCCO2)c2nc3ccccc3nc2n1Cc1cccs1 (stereo unspecified), which activation (NLG inhibition) (at 19.5 µM (top of the series)) is on record?
Answer: inactive: 40.8%

Question: Which activation (NLG inhibition) (at 19.5 µM (top of the series)) does the source give for COC12CCC3(CC1C(C)(O)C(C)(C)C)[C@H]1Cc4ccc(O)c5c4[C@@]3(CCN1CC1CC1)C2O5 (stereo partly specified) here?
Answer: inactive: -28.6%

Question: Which activation (NLG inhibition) (at 19.5 µM (top of the series)) does the source give for COc1cc2c(c(OC)c1OC)-c1ccc(O)cc1[C@@H](NC(C)=O)CC2 here?
Answer: inactive: 49%

Question: Which activation (NLG inhibition) (at 19.5 µM (top of the series)) does the source give for O=C1Nc2ccccc2/C1=C/c1cnc[nH]1 here?
Answer: inactive: 7.56%
